The experiment addresses GST‐tagged human STING CTT (residue number: 335–379), phosphorylated (human) (UniProt Q86WV6). Nature of the experiment: pull-down; competition: phosphorylated GST-STING CTT on glutathione Sepharose 4B beads, IRF3 with Sec24; 20 mM HEPES-Na pH 7.4, 200 mM NaCl, 4 mM DTT, 0.1% Triton X-100, 4 °C; SDS-PAGE; both purified.

Protein sequences, listed by entry. Tags and fused reporters are not part of them. Residues count along the entry.
UniProt Q86WV6, residues 335-379: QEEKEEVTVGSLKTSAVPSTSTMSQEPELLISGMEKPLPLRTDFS

No constants are given. Whether binding was seen depends on the method and setting. Some binding calls cover weakened binding; strength is not graded here.

B1: IRF3 (protein, UniProt Q14653 1-427)
chain: MGTPKPRILPWLVSQLDLGQLEGVAWVNKSRTRFRIPWKHGLRQDAQQEDFGIFQAWAEATGAYVPGRDKPDLPTWKRNFRSALNRKEGLRLAEDRSKDPHDPHKIYEFVNSGVGDFSQPDTSPDTNGGGSTSDTQEDILDELLGNMVLAPLPDPGPPSLAVAPEPCPQPLRSPSLDNPTPFPNLGPSENPLKRLLVPGEEWEFEVTAFYRGRQVFQQTISCPEGLRLVGSEVGDRTLPGWPVTLPDPGMSLTDRGVMSYVRHVLSCLGGGLALWRAGQWLWAQRLGHCHTYWAVSEELLPNSGHGPDGEVPKDKEGGVFDLGPFIVDLITFTEGSGRSPRYALWFCVGESWPQDQPWTKRLVMVKVVPTCLRALVEMARVGGASSLENTVDLHISNSHPLSLTSDQYKAYLQDLVEGMDFQGPGES
Consider B1, for which the binding result was “binds”.

Values taken from publication PMC12463132 (Advanced Science, 2025).
